Experimental data: the supplement of paper PMC10849652
The other results are listed elsewhere or left out.

The chains behind the UniProt entries cited, without tags or fusion partners. Where a name states a change or a piece, a line headed by the entry shows the natural chain unless it says otherwise.
UniProt Q9BQD3: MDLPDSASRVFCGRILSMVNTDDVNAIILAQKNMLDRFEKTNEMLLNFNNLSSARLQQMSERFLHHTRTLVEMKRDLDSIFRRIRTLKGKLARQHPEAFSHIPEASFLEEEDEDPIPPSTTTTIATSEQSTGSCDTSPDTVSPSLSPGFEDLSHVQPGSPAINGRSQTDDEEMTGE
UniProt O60268: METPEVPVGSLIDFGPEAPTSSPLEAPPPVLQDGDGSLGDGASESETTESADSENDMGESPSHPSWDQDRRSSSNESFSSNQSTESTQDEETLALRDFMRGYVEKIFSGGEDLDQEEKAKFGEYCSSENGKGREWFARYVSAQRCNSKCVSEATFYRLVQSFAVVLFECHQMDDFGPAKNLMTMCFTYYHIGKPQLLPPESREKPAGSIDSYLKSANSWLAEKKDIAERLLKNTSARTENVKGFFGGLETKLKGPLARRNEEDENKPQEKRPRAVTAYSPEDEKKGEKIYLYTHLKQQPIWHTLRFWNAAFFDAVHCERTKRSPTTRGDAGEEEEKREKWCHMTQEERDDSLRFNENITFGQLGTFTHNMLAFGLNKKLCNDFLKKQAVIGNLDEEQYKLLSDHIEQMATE
UniProt O14686, whole entry, looked up: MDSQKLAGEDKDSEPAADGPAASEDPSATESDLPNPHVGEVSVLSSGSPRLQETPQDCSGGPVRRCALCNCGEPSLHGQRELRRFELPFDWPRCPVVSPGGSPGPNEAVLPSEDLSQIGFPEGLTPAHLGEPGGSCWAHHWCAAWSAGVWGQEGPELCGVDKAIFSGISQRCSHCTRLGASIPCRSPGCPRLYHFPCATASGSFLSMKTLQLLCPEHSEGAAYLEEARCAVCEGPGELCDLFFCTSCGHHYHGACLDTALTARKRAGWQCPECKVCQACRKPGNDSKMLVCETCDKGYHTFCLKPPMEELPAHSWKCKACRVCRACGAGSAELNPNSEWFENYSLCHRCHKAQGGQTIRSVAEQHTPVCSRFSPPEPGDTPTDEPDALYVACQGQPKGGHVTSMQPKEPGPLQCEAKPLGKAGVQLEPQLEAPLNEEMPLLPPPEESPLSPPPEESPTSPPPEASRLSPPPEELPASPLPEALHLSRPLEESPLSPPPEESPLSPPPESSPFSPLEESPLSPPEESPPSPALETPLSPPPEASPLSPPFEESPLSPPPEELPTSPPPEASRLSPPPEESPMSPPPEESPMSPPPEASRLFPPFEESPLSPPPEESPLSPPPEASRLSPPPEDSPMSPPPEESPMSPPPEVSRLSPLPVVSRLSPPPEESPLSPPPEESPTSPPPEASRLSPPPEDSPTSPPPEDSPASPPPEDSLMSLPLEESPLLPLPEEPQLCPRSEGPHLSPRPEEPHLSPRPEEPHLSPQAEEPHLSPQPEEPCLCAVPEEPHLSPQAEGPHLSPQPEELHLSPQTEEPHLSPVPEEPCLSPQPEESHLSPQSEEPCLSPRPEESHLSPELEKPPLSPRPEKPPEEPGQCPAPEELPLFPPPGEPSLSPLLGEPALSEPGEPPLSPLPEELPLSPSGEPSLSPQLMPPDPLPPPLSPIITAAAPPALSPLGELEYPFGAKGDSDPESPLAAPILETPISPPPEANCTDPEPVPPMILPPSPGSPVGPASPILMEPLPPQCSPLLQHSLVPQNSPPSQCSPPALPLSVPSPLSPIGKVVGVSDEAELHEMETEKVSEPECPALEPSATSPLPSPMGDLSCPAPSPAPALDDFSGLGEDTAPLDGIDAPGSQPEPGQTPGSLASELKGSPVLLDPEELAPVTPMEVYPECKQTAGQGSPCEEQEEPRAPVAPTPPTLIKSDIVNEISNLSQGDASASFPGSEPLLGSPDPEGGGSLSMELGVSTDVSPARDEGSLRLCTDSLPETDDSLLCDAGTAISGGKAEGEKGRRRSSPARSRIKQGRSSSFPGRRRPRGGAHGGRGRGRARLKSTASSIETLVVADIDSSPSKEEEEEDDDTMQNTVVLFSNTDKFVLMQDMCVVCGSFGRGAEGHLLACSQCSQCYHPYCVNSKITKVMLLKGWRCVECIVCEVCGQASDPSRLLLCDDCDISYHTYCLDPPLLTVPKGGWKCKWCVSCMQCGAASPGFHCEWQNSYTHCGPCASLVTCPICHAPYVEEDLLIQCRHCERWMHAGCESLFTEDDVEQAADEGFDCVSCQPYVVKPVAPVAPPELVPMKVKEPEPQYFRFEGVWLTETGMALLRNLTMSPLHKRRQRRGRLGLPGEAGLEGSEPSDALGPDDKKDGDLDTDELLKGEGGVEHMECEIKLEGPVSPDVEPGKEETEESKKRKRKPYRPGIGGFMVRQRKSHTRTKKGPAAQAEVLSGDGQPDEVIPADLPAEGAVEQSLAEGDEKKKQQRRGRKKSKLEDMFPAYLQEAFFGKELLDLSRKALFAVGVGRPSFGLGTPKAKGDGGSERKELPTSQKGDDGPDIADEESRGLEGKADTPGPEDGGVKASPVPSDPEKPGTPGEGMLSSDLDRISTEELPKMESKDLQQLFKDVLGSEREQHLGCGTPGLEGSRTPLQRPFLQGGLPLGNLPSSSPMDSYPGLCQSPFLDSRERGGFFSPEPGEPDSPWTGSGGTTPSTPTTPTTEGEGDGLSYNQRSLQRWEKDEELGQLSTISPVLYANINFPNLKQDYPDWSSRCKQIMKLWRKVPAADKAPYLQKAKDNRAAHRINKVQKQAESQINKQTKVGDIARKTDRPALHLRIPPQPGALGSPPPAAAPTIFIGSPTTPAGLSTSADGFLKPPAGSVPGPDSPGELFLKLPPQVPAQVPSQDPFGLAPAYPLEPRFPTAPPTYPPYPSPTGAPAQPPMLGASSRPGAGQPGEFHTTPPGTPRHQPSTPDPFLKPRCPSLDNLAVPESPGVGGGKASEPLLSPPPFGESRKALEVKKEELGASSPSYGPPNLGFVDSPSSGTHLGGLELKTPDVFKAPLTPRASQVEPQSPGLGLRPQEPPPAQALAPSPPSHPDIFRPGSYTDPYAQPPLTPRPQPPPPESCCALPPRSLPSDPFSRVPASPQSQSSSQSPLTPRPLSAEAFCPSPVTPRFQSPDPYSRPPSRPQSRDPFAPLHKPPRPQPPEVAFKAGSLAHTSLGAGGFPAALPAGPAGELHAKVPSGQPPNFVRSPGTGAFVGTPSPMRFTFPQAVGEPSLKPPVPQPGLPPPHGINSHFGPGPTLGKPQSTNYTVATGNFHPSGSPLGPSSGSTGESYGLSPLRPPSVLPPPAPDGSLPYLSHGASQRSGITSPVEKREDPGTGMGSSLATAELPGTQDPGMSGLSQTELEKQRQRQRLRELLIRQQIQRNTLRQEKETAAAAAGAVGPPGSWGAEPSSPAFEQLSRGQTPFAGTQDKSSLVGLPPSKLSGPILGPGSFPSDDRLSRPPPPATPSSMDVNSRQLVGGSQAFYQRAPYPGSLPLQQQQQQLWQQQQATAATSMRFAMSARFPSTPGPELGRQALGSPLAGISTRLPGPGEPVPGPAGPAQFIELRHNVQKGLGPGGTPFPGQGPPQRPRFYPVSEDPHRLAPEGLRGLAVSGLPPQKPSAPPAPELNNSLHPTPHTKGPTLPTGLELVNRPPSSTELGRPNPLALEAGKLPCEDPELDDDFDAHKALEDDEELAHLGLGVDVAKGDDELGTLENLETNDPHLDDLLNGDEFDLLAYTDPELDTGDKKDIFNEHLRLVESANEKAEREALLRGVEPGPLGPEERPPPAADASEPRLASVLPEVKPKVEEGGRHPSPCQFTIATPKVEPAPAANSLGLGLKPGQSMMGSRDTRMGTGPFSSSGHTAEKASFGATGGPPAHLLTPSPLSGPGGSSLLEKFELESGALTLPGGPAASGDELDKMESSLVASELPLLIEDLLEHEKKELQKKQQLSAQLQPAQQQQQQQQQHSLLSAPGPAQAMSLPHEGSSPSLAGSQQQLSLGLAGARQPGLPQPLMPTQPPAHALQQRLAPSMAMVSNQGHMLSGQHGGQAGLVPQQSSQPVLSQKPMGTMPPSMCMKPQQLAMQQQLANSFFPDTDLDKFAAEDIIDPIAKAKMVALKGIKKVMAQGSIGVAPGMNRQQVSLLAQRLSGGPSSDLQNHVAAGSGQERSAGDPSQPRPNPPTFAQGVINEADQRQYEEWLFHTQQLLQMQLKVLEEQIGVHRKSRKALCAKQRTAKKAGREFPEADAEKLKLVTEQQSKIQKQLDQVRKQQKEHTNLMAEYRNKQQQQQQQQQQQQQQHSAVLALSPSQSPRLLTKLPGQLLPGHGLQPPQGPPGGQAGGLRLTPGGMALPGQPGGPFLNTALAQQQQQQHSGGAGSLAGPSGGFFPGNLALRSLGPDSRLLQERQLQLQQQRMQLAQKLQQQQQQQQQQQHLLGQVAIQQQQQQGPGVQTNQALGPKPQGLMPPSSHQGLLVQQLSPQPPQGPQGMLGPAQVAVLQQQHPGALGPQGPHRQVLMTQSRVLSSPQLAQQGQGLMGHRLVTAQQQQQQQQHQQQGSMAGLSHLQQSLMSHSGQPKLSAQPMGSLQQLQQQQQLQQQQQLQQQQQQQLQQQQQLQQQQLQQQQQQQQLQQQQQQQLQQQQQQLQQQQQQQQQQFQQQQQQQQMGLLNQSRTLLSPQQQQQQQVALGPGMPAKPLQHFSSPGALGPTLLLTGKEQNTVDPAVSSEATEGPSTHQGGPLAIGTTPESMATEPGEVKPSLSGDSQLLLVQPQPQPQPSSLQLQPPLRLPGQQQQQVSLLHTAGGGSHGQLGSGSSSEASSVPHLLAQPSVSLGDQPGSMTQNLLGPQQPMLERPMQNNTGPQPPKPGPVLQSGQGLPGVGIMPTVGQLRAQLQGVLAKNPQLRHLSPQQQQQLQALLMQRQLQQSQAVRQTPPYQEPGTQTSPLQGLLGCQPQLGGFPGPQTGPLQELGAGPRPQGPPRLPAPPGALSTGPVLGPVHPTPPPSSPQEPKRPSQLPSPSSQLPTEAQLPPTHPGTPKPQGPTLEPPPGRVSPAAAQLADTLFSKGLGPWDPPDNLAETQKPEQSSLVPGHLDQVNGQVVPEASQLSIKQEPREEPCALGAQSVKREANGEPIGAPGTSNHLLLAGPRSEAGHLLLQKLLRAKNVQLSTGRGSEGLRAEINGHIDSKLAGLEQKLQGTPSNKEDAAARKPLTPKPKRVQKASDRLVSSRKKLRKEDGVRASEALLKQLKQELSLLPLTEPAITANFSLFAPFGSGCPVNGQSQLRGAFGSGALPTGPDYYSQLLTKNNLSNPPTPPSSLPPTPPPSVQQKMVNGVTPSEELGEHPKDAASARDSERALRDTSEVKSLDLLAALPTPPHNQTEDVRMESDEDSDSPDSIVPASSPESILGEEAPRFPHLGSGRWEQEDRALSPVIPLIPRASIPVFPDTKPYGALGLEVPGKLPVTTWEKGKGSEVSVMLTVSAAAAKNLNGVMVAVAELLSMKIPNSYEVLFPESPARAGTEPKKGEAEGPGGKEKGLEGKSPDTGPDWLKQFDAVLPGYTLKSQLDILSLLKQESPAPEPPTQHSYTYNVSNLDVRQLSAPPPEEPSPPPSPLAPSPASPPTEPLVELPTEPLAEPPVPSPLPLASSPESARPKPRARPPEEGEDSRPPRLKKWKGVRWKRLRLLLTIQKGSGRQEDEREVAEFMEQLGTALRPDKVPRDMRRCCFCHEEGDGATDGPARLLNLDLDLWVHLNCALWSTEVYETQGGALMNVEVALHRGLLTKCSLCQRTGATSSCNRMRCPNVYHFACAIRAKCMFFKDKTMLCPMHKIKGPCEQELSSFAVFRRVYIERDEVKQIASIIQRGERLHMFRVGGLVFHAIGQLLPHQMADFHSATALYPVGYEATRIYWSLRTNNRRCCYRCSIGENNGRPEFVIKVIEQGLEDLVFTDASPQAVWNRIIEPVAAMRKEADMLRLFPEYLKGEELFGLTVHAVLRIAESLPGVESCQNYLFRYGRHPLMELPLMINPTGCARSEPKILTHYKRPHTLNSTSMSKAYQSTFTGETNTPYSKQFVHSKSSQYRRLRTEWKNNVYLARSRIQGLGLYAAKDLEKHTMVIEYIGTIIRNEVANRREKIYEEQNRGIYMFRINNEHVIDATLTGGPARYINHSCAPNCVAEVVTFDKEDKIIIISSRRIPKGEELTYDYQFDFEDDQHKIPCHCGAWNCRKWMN
UniProt P13473: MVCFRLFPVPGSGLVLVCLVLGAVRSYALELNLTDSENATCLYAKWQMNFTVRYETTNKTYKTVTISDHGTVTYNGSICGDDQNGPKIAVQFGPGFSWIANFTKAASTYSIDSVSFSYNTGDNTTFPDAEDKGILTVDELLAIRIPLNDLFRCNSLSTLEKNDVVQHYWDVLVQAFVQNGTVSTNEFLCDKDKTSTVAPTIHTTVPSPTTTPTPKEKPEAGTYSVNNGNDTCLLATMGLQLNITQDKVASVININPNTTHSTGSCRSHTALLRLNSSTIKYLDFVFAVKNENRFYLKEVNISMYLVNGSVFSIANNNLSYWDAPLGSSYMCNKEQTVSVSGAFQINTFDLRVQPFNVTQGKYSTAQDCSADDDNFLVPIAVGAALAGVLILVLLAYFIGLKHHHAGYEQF

How the values were obtained:
Assay in all cases: log2 fold change, soluble protein after heating vs DMSO (PISA); higher = thermal stabilisation; K562 lysate, 10 uM; active = over 0.2 and 3.5 SD of the protein, either way, in both replicates (recomputed)
[1] = compound: NCC(=O)Nc1ccc(-n2nc(C(F)(F)F)cc2-c2ccc3c(ccc4ccccc43)c2)cc1
Outline: (§1)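 Soluble protein was defined as the supernatant remaining after 21,000xg for 90 min, following pooling of heated aliquots and adjustment to 0.5% NP-40 at 4°C. Before that, crude K562 extract at 1 mg/mL protein in PBS pH 7.4 with 1 mM MgCl2 was treated with 10 μM compound for 30 min and heated for 3 min across 48°C-58°C. Quantification used TMTpro 16plex LC-MS/MS with channel sums equalised, and values are log-two fold changes in thermal stability relative to solvent controls from duplicates.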

vorinostat = compound: O=C(CCCCCCC(=O)Nc1ccccc1)NO [vorinostat]
Outline: as §1

silmitasertib = compound: O=C(O)c1ccc2c(c1)nc(Nc1cccc(Cl)c1)c1ccncc12 [silmitasertib]
Outline: as §1

[2] = compound: O=C1NC(=O)C(c2cnc3ccccn23)=C1c1cn2c3c(cc(F)cc13)CN(C(=O)N1CCCCC1)CC2
Outline: as §1

entospletinib = compound: c1cn2cc(-c3ccc4cn[nH]c4c3)nc(Nc3ccc(N4CCOCC4)cc3)c2n1 [entospletinib]
Outline: as §1

Row | Target | log2 fold change [1] | log2 fold change (vorinostat) | log2 fold change (silmitasertib) | log2 fold change [2] | log2 fold change (entospletinib)
1 | KIF4B (UniProt Q2VIQ3) | inactive: -0.035 | active: -0.506 | inactive: 0.027 | inactive: -0.02 | inactive: 0
2 | KXD1 (UniProt Q9BQD3) | inactive: 0.008 | inactive: 0.026 | inactive: -0.019 | inactive: 0.068 | inactive: 0.016
3 | KIAA0513 (UniProt O60268) | inactive: 0.007 | inactive: -0.032 | inactive: 0.022 | inactive: 0.001 | inactive: 0
4 | KPNB1 (UniProt Q14974) | inactive: 0.04 | inactive: 0.028 | inactive: -0.006 | inactive: 0.018 | inactive: 0.004
5 | LANCL1 (UniProt O43813) | inactive: -0.074 | inactive: -0.029 | inactive: -0.005 | inactive: -0.019 | inactive: 0.005
6 | KRI1 (UniProt Q8N9T8) | inactive: 0.085 | active: -0.285 | inactive: -0.023 | inactive: -0.007 | inactive: -0.07
7 | LAPTM4A (UniProt Q15012) | inactive: 0.073 |  |  |  | 
8 | KDM4A (UniProt O75164) | inactive: 0.014 | inactive: -0.154 | inactive: 0.082 | inactive: -0.026 | inactive: -0.031
9 | KIF22 (UniProt Q14807) | inactive: 0.069 | inactive: 0.158 | inactive: -0.128 | inactive: 0.156 | inactive: 0.001
10 | LARP7 isoform 3 (UniProt Q4G0J3) | inactive: 0.039 | inactive: 0.071 | inactive: 0.02 | inactive: -0.009 | inactive: 0.014
11 | KIF20B isoform 2 (UniProt Q96Q89) | inactive: 0.025 | inactive: 0.058 | inactive: 0.349 | inactive: -0.119 | inactive: -0.071
12 | KIAA1586 (UniProt Q9HCI6) | inactive: 0.085 | inactive: -0.129 | inactive: -0.035 |  | 
13 | KIF1B isoform 2 (UniProt O60333) | inactive: 0.022 | inactive: -0.117 | inactive: 0.031 | inactive: 0.008 | inactive: 0.008
14 | KIN (UniProt O60870) | inactive: -0.045 | inactive: -0.116 | inactive: 0.027 | inactive: 0.005 | inactive: 0.033
15 | KMT2D isoform 3 (UniProt O14686) | inactive: 0 | inactive: -0.157 | inactive: -0.027 | inactive: -0.004 | inactive: -0.047
16 | KDM6A (UniProt O15550) | inactive: 0.026 | active: -0.299 | inactive: -0.059 | inactive: -0.009 | inactive: -0.02
17 | LAMTOR2 (UniProt Q9Y2Q5) | inactive: -0.137 | inactive: 0.157 | inactive: 0.005 | inactive: 0 | inactive: 0.002
18 | KLHL41 (UniProt O60662) | inactive: 0.099 | inactive: 0.156 | inactive: -0.1 | inactive: 0.329 | inactive: -0.001
19 | KIAA0100 (UniProt Q14667) | inactive: 0.05 | inactive: -0.231 | inactive: -0.03 | inactive: -0.026 | inactive: 0.075
20 | KPNA3 (UniProt O00505) | inactive: 0.048 | inactive: 0.008 | inactive: -0.05 | inactive: 0.001 | inactive: -0.016
21 | KLHL12 isoform 2 (UniProt Q53G59) | inactive: 0.135 | inactive: -0.108 | inactive: 0.024 | inactive: 0.003 | 
22 | KIF4A (UniProt O95239) | inactive: -0.017 | active: -0.445 | inactive: 0.017 | inactive: 0.013 | inactive: 0.001
23 | KIDINS220 isoform 2 (UniProt Q9ULH0) | inactive: 0.277 |  |  |  | 
24 | LAMP2 (UniProt P13473) | inactive: -0.136 | inactive: 0.17 | inactive: -0.003 | inactive: -0.034 | inactive: -0.008
25 | KIF2C (UniProt Q99661) | inactive: 0.003 | active: -0.464 | inactive: 0.028 | inactive: 0.012 | inactive: 0.024
26 | LARP1 (UniProt Q6PKG0) | inactive: -0.007 | inactive: -0.003 | inactive: -0.006 | inactive: -0.013 | inactive: 0.023

An excerpt of these results, with tabs:
Row	Target	log2 fold change [1]	log2 fold change (vorinostat)	log2 fold change (silmitasertib)	log2 fold change [2]	log2 fold change (entospletinib)
4	KPNB1 (UniProt Q14974)	inactive: 0.04	inactive: 0.028	inactive: -0.006	inactive: 0.018	inactive: 0.004
7	LAPTM4A (UniProt Q15012)	inactive: 0.073				
